# The other results are listed elsewhere or left out.
# Tests used:
# Assay in all cases: glycan array binding signal (z-score within array); higher = stronger binding
# Settings in all cases: glycan notation: IUPAC condensed, linker removed
# [1] = biological target: Fuc(a1-2)Gal6S(b1-4)Glc6S
# Summary of the method: (§1)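 From the Consortium for Functional Glycomics database, 3228 arrays were curated, keeping only those whose protein sequence was available. Binding is given as a within-array Z-score averaged across arrays sharing a protein sequence and across linkers. Negative Z-scores can be read as non-binding.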
# [2] = biological target: Fuc(a1-2)Gal6S(b1-4)GlcNAc
# Summary of the method: as §1
# Fuc(a1-2)[Gal(a1-3)]Gal = biological target: Fuc(a1-2)[Gal(a1-3)]Gal
# Summary of the method: as §1
# [3] = biological target: Fuc(a1-2)[Gal(a1-3)]Gal(b1-3)GalNAc
# Summary of the method: as §1
# [4] = biological target: Fuc(a1-2)[Gal(a1-3)]Gal(b1-3)GlcNAc
# Summary of the method: as §1
# [5] = biological target: Fuc(a1-2)[Gal(a1-3)]Gal(b1-3)GlcNAc(b1-2)Man(a1-3)[Fuc(a1-2)[Gal(a1-3)]Gal(b1-3)GlcNAc(b1-2)Man(a1-6)]Man(b1-4)GlcNAc(b1-4)GlcNAc
# Summary of the method: as §1
# [6] = biological target: Fuc(a1-2)[Gal(a1-3)]Gal(b1-3)GlcNAc(b1-2)Man(a1-3)[Fuc(a1-2)[Gal(a1-3)]Gal(b1-3)GlcNAc(b1-2)Man(a1-6)]Man(b1-4)GlcNAc(b1-4)[Fuc(a1-6)]GlcNAc
# Summary of the method: as §1
# [7] = biological target: Fuc(a1-2)[Gal(a1-3)]Gal(b1-3)GlcNAc(b1-3)GalNAc
# Summary of the method: as §1
# [8] = biological target: Fuc(a1-2)[Gal(a1-3)]Gal(b1-4)Glc
# Summary of the method: as §1
# [9] = biological target: Fuc(a1-2)[Gal(a1-3)]Gal(b1-4)GlcNAc
# Summary of the method: as §1
# [10] = biological target: Fuc(a1-2)[Gal(a1-3)]Gal(b1-4)GlcNAc(b1-2)Man(a1-3)[Fuc(a1-2)[Gal(a1-3)]Gal(b1-4)GlcNAc(b1-2)Man(a1-6)]Man(b1-4)GlcNAc(b1-4)GlcNAc
# Summary of the method: as §1
# [11] = biological target: Fuc(a1-2)[Gal(a1-3)]Gal(b1-4)GlcNAc(b1-2)Man(a1-3)[Fuc(a1-2)[Gal(a1-3)]Gal(b1-4)GlcNAc(b1-2)Man(a1-6)]Man(b1-4)GlcNAc(b1-4)[Fuc(a1-6)]GlcNAc
# Summary of the method: as §1
# [12] = biological target: Fuc(a1-2)[Gal(a1-3)]Gal(b1-4)GlcNAc(b1-3)GalNAc
# Summary of the method: as §1
# [13] = biological target: Fuc(a1-2)[Gal(a1-3)]Gal(b1-4)[Fuc(a1-3)]Glc
# Summary of the method: as §1
# [14] = biological target: Fuc(a1-2)[Gal(a1-3)]Gal(b1-4)[Fuc(a1-3)]GlcNAc
# Summary of the method: as §1
# [15] = biological target: Fuc(a1-2)[Gal(a1-3)]Gal(b1-4)[Fuc(a1-3)]GlcNAc(b1-3)GalNAc
# Summary of the method: as §1
# [16] = biological target: Fuc(a1-2)[Gal(a1-4)]Gal(b1-4)GlcNAc
# Summary of the method: as §1
# [17] = biological target: Fuc(a1-2)[GalNAc(a1-3)]Gal
# Summary of the method: as §1
# [18] = biological target: Fuc(a1-2)[GalNAc(a1-3)]Gal(b1-3)GalNAc(a1-3)[Fuc(a1-2)]Gal(b1-4)GlcNAc
# Summary of the method: as §1
# [19] = biological target: Fuc(a1-2)[GalNAc(a1-3)]Gal(b1-3)GlcNAc
# Summary of the method: as §1
# [20] = biological target: Fuc(a1-2)[GalNAc(a1-3)]Gal(b1-3)GlcNAc(b1-2)Man(a1-3)[Fuc(a1-2)[GalNAc(a1-3)]Gal(b1-3)GlcNAc(b1-2)Man(a1-6)]Man(b1-4)GlcNAc(b1-4)GlcNAc
# Summary of the method: as §1
# [21] = biological target: Fuc(a1-2)[GalNAc(a1-3)]Gal(b1-3)GlcNAc(b1-2)Man(a1-3)[Fuc(a1-2)[GalNAc(a1-3)]Gal(b1-3)GlcNAc(b1-2)Man(a1-6)]Man(b1-4)GlcNAc(b1-4)[Fuc(a1-6)]GlcNAc
# Summary of the method: as §1
# [22] = biological target: Fuc(a1-2)[GalNAc(a1-3)]Gal(b1-3)GlcNAc(b1-3)GalNAc
# Summary of the method: as §1
# [23] = biological target: Fuc(a1-2)[GalNAc(a1-3)]Gal(b1-4)Glc
# Summary of the method: as §1
# [24] = biological target: Fuc(a1-2)[GalNAc(a1-3)]Gal(b1-4)GlcNAc
# Summary of the method: as §1
# [25] = biological target: Fuc(a1-2)[GalNAc(a1-3)]Gal(b1-4)GlcNAc(b1-2)Man(a1-3)[Fuc(a1-2)[GalNAc(a1-3)]Gal(b1-4)GlcNAc(b1-2)Man(a1-6)]Man(b1-4)GlcNAc(b1-4)GlcNAc
# Summary of the method: as §1
# [26] = biological target: Fuc(a1-2)[GalNAc(a1-3)]Gal(b1-4)GlcNAc(b1-2)Man(a1-3)[Fuc(a1-2)[GalNAc(a1-3)]Gal(b1-4)GlcNAc(b1-2)Man(a1-6)]Man(b1-4)GlcNAc(b1-4)[Fuc(a1-6)]GlcNAc
# Summary of the method: as §1
# [27] = biological target: Fuc(a1-2)[GalNAc(a1-3)]Gal(b1-4)GlcNAc(b1-3)Gal(b1-4)GlcNAc
# Summary of the method: as §1
# [28] = biological target: Fuc(a1-2)[GalNAc(a1-3)]Gal(b1-4)GlcNAc(b1-3)Gal(b1-4)GlcNAc(b1-3)Gal(b1-4)GlcNAc
# Summary of the method: as §1
# [29] = biological target: Fuc(a1-2)[GalNAc(a1-3)]Gal(b1-4)GlcNAc(b1-3)GalNAc
# Summary of the method: as §1
# [30] = biological target: Fuc(a1-2)[GalNAc(a1-3)]Gal(b1-4)[Fuc(a1-3)]GlcNAc
# Summary of the method: as §1
# [31] = biological target: Fuc(a1-2)[GalNAc(a1-3)]Gal(b1-4)[Fuc(a1-3)]GlcNAc(b1-3)GalNAc
# Summary of the method: as §1
# [32] = biological target: Fuc(a1-2)[GalNAc(a1-4)]Gal(b1-4)GlcNAc
# Summary of the method: as §1
# [33] = biological target: Fuc(a1-2)[GalNAc(b1-3)]Gal
# Summary of the method: as §1
# Fuc(a1-3)GlcNAc = biological target: Fuc(a1-3)GlcNAc
# Summary of the method: as §1
# [34] = biological target: Fuc(a1-3)[Gal(b1-4)]Glc6S
# Summary of the method: as §1
# [35] = biological target: Fuc(a1-3)[Gal(b1-4)]GlcNAc
# Summary of the method: as §1
# [36] = biological target: Fuc(a1-3)[Gal(b1-4)]GlcNAc(b1-2)Man(a1-3)[Fuc(a1-3)[Gal(b1-4)]GlcNAc(b1-2)Man(a1-6)]Man(b1-4)GlcNAc(b1-4)GlcNAc
# Summary of the method: as §1
binder,measurement,setting,value
"DCL-1 (Homo sapiens), Q8IX05 (protein) MLRAALPALLLPLLGLAAAAVADCPSSTWIQFQDSCYIFLQEAIKVESIEDVRNQCTDHGADMISIHNEEENAFILDTLKKQWKGPDDILLGMFYDTDDASFKWFDNSNMTFDKWTDQDDDEDLVDTCAFLHIKTGEWKKGNCEVSSVEGTLCKTAIPYKRKYLSDNHILISALVIASTVILTVLGAIIWFLYKKHSDSRFTTVFSTAPQSPYNEDCVLVVGEENEYPVQFD",glycan array binding signal (z-score),[1],1.32
same,glycan array binding signal (z-score),[2],-0.605
same,glycan array binding signal (z-score),Fuc(a1-2)[Gal(a1-3)]Gal,-0.695
same,glycan array binding signal (z-score),[3],-0.288
same,glycan array binding signal (z-score),[4],3.01
same,glycan array binding signal (z-score),[5],0.517
same,glycan array binding signal (z-score),[6],0.561
same,glycan array binding signal (z-score),[7],0.63
same,glycan array binding signal (z-score),[8],-1.1
same,glycan array binding signal (z-score),[9],-0.77
same,glycan array binding signal (z-score),[10],-0.901
same,glycan array binding signal (z-score),[11],-0.114
same,glycan array binding signal (z-score),[12],-0.439
same,glycan array binding signal (z-score),[13],0.686
same,glycan array binding signal (z-score),[14],1.17
same,glycan array binding signal (z-score),[15],-0.85
same,glycan array binding signal (z-score),[16],-0.25
same,glycan array binding signal (z-score),[17],0.519
same,glycan array binding signal (z-score),[18],-0.795
same,glycan array binding signal (z-score),[19],-0.401
same,glycan array binding signal (z-score),[20],-0.009
same,glycan array binding signal (z-score),[21],-0.151
same,glycan array binding signal (z-score),[22],-0.237
same,glycan array binding signal (z-score),[23],-0.069
same,glycan array binding signal (z-score),[24],-0.734
same,glycan array binding signal (z-score),[25],0.221
same,glycan array binding signal (z-score),[26],-0.264
same,glycan array binding signal (z-score),[27],-0.481
same,glycan array binding signal (z-score),[28],-0.401
same,glycan array binding signal (z-score),[29],-0.248
same,glycan array binding signal (z-score),[30],1.47
same,glycan array binding signal (z-score),[31],0.181
same,glycan array binding signal (z-score),[32],-0.167
same,glycan array binding signal (z-score),[33],0.685
same,glycan array binding signal (z-score),Fuc(a1-3)GlcNAc,-1.35
same,glycan array binding signal (z-score),[34],0.173
same,glycan array binding signal (z-score),[35],-0.875
same,glycan array binding signal (z-score),[36],0.387

# Reprinted at random: 2 entries already listed
binder,measurement,setting,value
"DCL-1 (Homo sapiens), Q8IX05 (protein) MLRAALPALLLPLLGLAAAAVADCPSSTWIQFQDSCYIFLQEAIKVESIEDVRNQCTDHGADMISIHNEEENAFILDTLKKQWKGPDDILLGMFYDTDDASFKWFDNSNMTFDKWTDQDDDEDLVDTCAFLHIKTGEWKKGNCEVSSVEGTLCKTAIPYKRKYLSDNHILISALVIASTVILTVLGAIIWFLYKKHSDSRFTTVFSTAPQSPYNEDCVLVVGEENEYPVQFD",glycan array binding signal (z-score),[19],-0.401
same,glycan array binding signal (z-score),[13],0.686
